{
  "sequences": {"note": "Amino acid sequences for entries named in this document (tags omitted). Residues count along the entry.", "UniProt P02769, residues 25-607": "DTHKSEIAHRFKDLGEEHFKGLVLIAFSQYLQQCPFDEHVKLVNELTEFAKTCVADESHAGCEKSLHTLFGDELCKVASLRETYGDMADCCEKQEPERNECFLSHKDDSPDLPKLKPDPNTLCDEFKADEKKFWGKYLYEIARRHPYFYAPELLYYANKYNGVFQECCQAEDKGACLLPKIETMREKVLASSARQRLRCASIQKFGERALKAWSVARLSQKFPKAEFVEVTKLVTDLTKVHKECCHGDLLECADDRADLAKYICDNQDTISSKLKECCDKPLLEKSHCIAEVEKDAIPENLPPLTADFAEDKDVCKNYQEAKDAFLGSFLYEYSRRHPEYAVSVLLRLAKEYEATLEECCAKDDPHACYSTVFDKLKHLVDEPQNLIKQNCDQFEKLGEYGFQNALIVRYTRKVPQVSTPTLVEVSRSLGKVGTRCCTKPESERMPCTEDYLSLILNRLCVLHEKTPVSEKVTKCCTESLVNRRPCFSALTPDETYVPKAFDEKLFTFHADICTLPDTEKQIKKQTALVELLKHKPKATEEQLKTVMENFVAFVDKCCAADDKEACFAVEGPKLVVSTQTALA"},
  "source": "paper PMC8698322",
  "about": "“Autophagy Is Involved in the Viability of Overexpressing Thioredoxin o1 Tobacco BY-2 Cells under Oxidative Conditions” (Antioxidants, 2021)",
  "key": {"[1]": {"target": "recombinant human ATG4B, His-tagged (His-HsATG4B) (human) (UniProt Q9Y4P1)", "test": "SDS-PAGE (reductant-free sample buffer) and Western blot with anti-His; recombinant HsATG4B treated with 1 mM or 3 mM H2O2 followed by DTT, in TBSK buffer pH 8.0; both purified"}, "[2]": {"target": "bovine serum albumin (bovine) (UniProt P02769)", "test": "far-Western, overlay or dot blot; PsTRXo1 (1.5 µg), HsATG4B (2.3 µg) and BSA (1.5 µg) spotted on membranes, blocked in TBST (25 mM Tris-HCl pH 7.5, 1% BSA, 0.1% Tween-20), overlaid with 0.2 µg PsTRXo1 or 0.1 µg HsATG4B in TBST for 2 h at room temperature; detected with anti-PsTRXo1 or anti-CrATG4B; both purified"}},
  "note": "These are yes or no findings as the source states them, for the method shown. Where a sequence is shown, tags or fusion partners need not be part of it.",
  "data": [
    {"binder": "recombinant human ATG4B, His-tagged (His-HsATG4B) (enzyme, UniProt Q9Y4P1 1-393, looked up, human cysteine protease ATG4B, recombinant, bought; printed size with His tag 47 kDa; No catalogue number is printed; source: bought: Abcam) MDAATLTYDTLRFAEFEDFPETSEPVWILGRKYSIFTEKDEILSDVASRLWFTYRKNFPAIGGTGPTSDTGWGCMLRCGQMIFAQALVCRHLGRDWRWTQRKRQPDSYFSVLNAFIDRKDSYYSIHQIAQMGVGEGKSIGQWYGPNTVAQVLKKLAVFDTWSSLAVHIAMDNTVVMEEIRRLCRTSVPCAGATAFPADSDRHCNGFPAGAEVTNRPSPWRPLVLLIPLRLGLTDINEAYVETLKHCFMMPQSLGVIGGKPNSAHYFIGYVGEELIYLDPHTTQPAVEPTDGCFIPDESFHCQHPPCRMSIAELDPSIAVGFFCKTEDDFNDWCQQVKKLSLLGGALPMFELVELQPSHLACPDVLNLSLDSSDVERLERFFDSEDEDFEILSL", "values": [
      {"measurement": "binding", "setting": "[1]", "result": "no binding (condition: with DTT after the H2O2 treatment)"},
      {"measurement": "binding", "setting": "[2]", "result": "no binding (tested: 0.1 µg of recombinant HsATG4B overlaid)"}
    ]}
  ]
}
